# PubChem BioAssay AID602196 – INSERM | 2012
# Test: 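Knock-downs that protect lung cancer cells from cisplatin or sensitise them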
# Cells: human A549 lung cancer cells
# Knock-down reagent: siRNA pair against human genes
# Time to read-out: 48 h transfection before cisplatin; time from cisplatin to read-out not stated
# Treatment: cisplatin at a dose killing half of control-siRNA cells; exact dose and duration not given
# Measured: 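Cisplatin cell death as a shift from the 50% death seen with control siRNA; siRNAs toxic or growth-blocking alone scored 0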
# Scale: two-siRNA summed score (-2 to +2): higher = both siRNAs protect from cisplatin killing; -2 means both sensitise
# Call rule: 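Each siRNA scores 0 if harmful alone by LDH or WST-1, otherwise +1 if it reduces and -1 if it increases cisplatin killing; a gene is active when both siRNAs agree (sum +2 or -2)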
# Calls: active = both siRNAs shift cisplatin killing the same way; inactive = no consistent shift, or siRNA harmful alone
# In all, the deposit lists about 23,000 reagents; below is an unselected part. Over the whole deposit, 455 (2%) were called active. 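Active includes both protection and sensitisation; some change values fall well beyond the stated -50 to +50 range.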 The numbers tell different reagents against one gene apart. Further read-outs or replicates are left out here. Not stated in the record: the amount of reagent.
gene,reagent no.,two-siRNA summed score (-2 to +2),outcome
SCD5 (GeneID 79966),1,0,inactive
USP53 (GeneID 54532),1,0,inactive
FBXO5 (GeneID 26271),1,0,inactive
IL27 (GeneID 246778),1,0,inactive
DLX3 (GeneID 1747),1,0,inactive
NECAP2 (GeneID 55707),1,-1,inactive
CTSO (GeneID 1519),1,1,inactive
DCPS (GeneID 28960),1,1,inactive
TGM6 (GeneID 343641),1,0,inactive
RNF168 (GeneID 165918),1,0,inactive
FAM107A (GeneID 11170),1,0,inactive
EMC9 (GeneID 51016),1,0,inactive
KRT25 (GeneID 147183),1,0,inactive
TGFA (GeneID 7039),1,0,inactive
H2BP3 (GeneID 391566),1,0,inactive
CNGB3 (GeneID 54714),1,0,inactive
CLASP1 (GeneID 23332),1,0,inactive
LOC390284,1,0,inactive
LOC286355,1,0,inactive
CLPTM1L (GeneID 81037),1,0,inactive
PEX2 (GeneID 5828),1,0,inactive
ATP5PF (GeneID 522),1,1,inactive
TESK1 (GeneID 7016),1,1,inactive
ANKRD2 (GeneID 26287),1,0,inactive
SLC22A2 (GeneID 6582),1,1,inactive
PRR15 (GeneID 222171),1,0,inactive
CYB561D2 (GeneID 11068),1,0,inactive
FAM110B (GeneID 90362),1,0,inactive
ALPK3 (GeneID 57538),1,2,active
FARP2 (GeneID 9855),1,0,inactive
RAB18 (GeneID 22931),1,-1,inactive
OPA1 (GeneID 4976),1,0,inactive
WWP1P1 (GeneID 339843),1,1,inactive
ARMC8 (GeneID 25852),1,0,inactive
NAE1 (GeneID 8883),1,0,inactive
NAE1 (GeneID 8883),2,0,inactive

Next part (7 carried over from the part before).
gene,reagent no.,two-siRNA summed score (-2 to +2),outcome
FARP2 (GeneID 9855),1,0,inactive
RAB18 (GeneID 22931),1,-1,inactive
OPA1 (GeneID 4976),1,0,inactive
WWP1P1 (GeneID 339843),1,1,inactive
ARMC8 (GeneID 25852),1,0,inactive
NAE1 (GeneID 8883),1,0,inactive
NAE1 (GeneID 8883),2,0,inactive
LOC132870,1,0,inactive
HRK (GeneID 8739),1,-1,inactive
EIF4EBP3 (GeneID 8637),1,0,inactive
CACNA1A (GeneID 773),1,-1,inactive
LDLR (GeneID 3949),1,-1,inactive
STAP1 (GeneID 26228),1,0,inactive
SESN2 (GeneID 83667),1,0,inactive
LOC441646,1,1,inactive
SRARP (GeneID 149563),1,0,inactive
LINC00710 (GeneID 254312),1,0,inactive
MXRA5 (GeneID 25878),1,0,inactive
LRRTM4 (GeneID 80059),1,-1,inactive
LOC442243,1,1,inactive
SULF1 (GeneID 23213),1,-1,inactive
MYO5A (GeneID 4644),1,0,inactive
CFAP77 (GeneID 389799),1,0,inactive
WIZ (GeneID 58525),1,0,inactive
ADAMTS15 (GeneID 170689),1,-1,inactive
OTUB2 (GeneID 78990),1,0,inactive
OR52H1 (GeneID 390067),1,0,inactive
ELMOD1 (GeneID 55531),1,0,inactive
